This is one part of the list.
Each sequence was assayed against OsWRKY34 (Oryza sativa, UniProt Q0JBA9 1-250) (assay: protein-binding microarray (RPBM); PBS, 2% BSA, 51.3 ng/ul salmon testes DNA, 50 uM zinc acetate, 200 nM TF, 25 C, 1 h; high values mean tight binding). Conditions: protein: recombinant; tags: N-terminal polyhistidine and DsRed monomer fusion (pET32a); label: CyDye5-dUTP incorporated in the synthesized complementary strand; 3' TTTTT single-stranded linker to array surface; dsDNA, one strand shown.
How it was run: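 For the binding signal, per-feature fluorescence intensity was read in arbitrary units on an Axon 4000B scanner. Before scanning, a 2% BSA-blocked custom Agilent array made double-stranded with Cy5-dUTP was washed after 1 h at 25 °C with 200 nM protein and 50 µM zinc acetate. The proteins were Ni–NTA-purified transcription factors with N-terminal polyhistidine and DsRed fusions, expressed in E. coli BL21-CodonPlus.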

Chains of the proteins cited; added tags and fusions are not shown.
UniProt Q0JBA9, entry or part of it: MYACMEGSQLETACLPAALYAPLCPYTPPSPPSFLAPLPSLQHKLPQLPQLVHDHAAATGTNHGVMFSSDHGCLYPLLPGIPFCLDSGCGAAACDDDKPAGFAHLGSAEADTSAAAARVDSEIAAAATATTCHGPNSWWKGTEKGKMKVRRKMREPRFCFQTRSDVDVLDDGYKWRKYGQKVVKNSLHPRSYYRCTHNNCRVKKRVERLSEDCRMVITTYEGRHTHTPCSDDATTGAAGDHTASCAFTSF

Q: For “CTCTCTTGTTACGTTTTTTTCCATTTTGTTGTGGCGGATGCGGAGTCACCTAGTGCAG”, which binding signal is on record?
A: 8990 fluorescence intensity (a.u.)

Q: Which binding signal does the source give for “CCTCCTGCACCCGACACCATACGCCCGCTCTCTCTGACACCGGAGTCACCTAGTGCAG” here?
A: 9410 fluorescence intensity (a.u.)

Q: For “ACATCAGGAGGAGGGGAGGTCCGGGAGGAAGAAGAAAGGGCGGAGTCACCTAGTGCAG”, which binding signal is on record?
A: 10900 fluorescence intensity (a.u.)

Q: For “AGCACCTCTTTTCTTTTTCATTTCTCCTGTGTGGATAGATCGGAGTCACCTAGTGCAG”, which binding signal is on record?
A: 12000 fluorescence intensity (a.u.)

Q: Which binding signal does the source give for “AGGGTTTTCTATCTATCCATCTAGATTTTGATCTTCCCCTCGGAGTCACCTAGTGCAG” here?
A: 8990 fluorescence intensity (a.u.)

Q: With “GAAACCCTCGTTGCATCACCTCCACATTTCACTCGTTTGCCGGAGTCACCTAGTGCAG” as the sequence, how does the binding signal read?
A: 8540 fluorescence intensity (a.u.)

Q: For “TATTTTGGTAGTGCCCTTATACTATTTGGTCATTTTCTAGCGGAGTCACCTAGTGCAG”, which binding signal is on record?
A: 9840 fluorescence intensity (a.u.)

Q: “AAACAACACTTTTGGTCAATATACACACTCCGTAATCACCCGGAGTCACCTAGTGCAG” was tested. Which binding signal did it give?
A: 10500 fluorescence intensity (a.u.)

Q: Which binding signal does the source give for “AATGGTCAAACATGTGAGAAAAAGTCAACGGCGTTATCTACGGAGTCACCTAGTGCAG” here?
A: 15500 fluorescence intensity (a.u.)

Q: With “TAAGGGGCATAGTTATTTCTCTTCACTGATAGTTTGTCTGCGGAGTCACCTAGTGCAG” as the sequence, how does the binding signal read?
A: 8090 fluorescence intensity (a.u.)

Q: For “CTTTAACCAGCGCATCACAATCCACATCGATTGGTTACTTCGGAGTCACCTAGTGCAG”, which binding signal is on record?
A: 9650 fluorescence intensity (a.u.)

Q: Which binding signal does the source give for “TAGTTAGCAGGTTTTGCACCCATTCAATGTGTTCTGTGTTCGGAGTCACCTAGTGCAG” here?
A: 8160 fluorescence intensity (a.u.)

Q: How did the binding signal turn out when “AAGTAGGGGCGAGAGTGGTTGGTTGGGTACGGGAAAAATACGGAGTCACCTAGTGCAG” was run?
A: 9140 fluorescence intensity (a.u.)

Q: With “GGACCCACATGTCAGCATCACATTTTTTTCTGTCTCCTCCCGGAGTCACCTAGTGCAG” as the sequence, how does the binding signal read?
A: 8210 fluorescence intensity (a.u.)

Q: How did the binding signal turn out when “ACCCTCTCGCCCGGCTGGTGCTGCTTCCTGCAAAGTAACACGGAGTCACCTAGTGCAG” was run?
A: 9850 fluorescence intensity (a.u.)

Q: Which binding signal does the source give for “ATTCCTCACATTTTACATTTTTACATTGGGTTTTGCATTTCGGAGTCACCTAGTGCAG” here?
A: 9990 fluorescence intensity (a.u.)

Q: Which binding signal does the source give for “CGCCGTTGACTTTTCATATAATATTTAACAATTCGCTTTACGGAGTCACCTAGTGCAG” here?
A: 36800 fluorescence intensity (a.u.)

Q: “GCCAATGCCCTGGAAAGTGTATATCTGGGTTTCCTTTACTCGGAGTCACCTAGTGCAG” was tested. Which binding signal did it give?
A: 8930 fluorescence intensity (a.u.)

Q: With “ATTCATGTTTACATTTCCAGGTACATATTTACATTCGCCACGGAGTCACCTAGTGCAG” as the sequence, how does the binding signal read?
A: 9000 fluorescence intensity (a.u.)

Q: “TTCAGCCGTGACTTTTTTTACTATGTCTACCAACAAACTACGGAGTCACCTAGTGCAG” was tested. Which binding signal did it give?
A: 10400 fluorescence intensity (a.u.)

Q: With “CTCAGCCTCATCACTCACGAGCAATCAGCTAGCTAGCTTACGGAGTCACCTAGTGCAG” as the sequence, how does the binding signal read?
A: 8120 fluorescence intensity (a.u.)

Q: With “TACTCCATTTCGTAGCTAGTTTGCACATCACCAAACATTCCGGAGTCACCTAGTGCAG” as the sequence, how does the binding signal read?
A: 8600 fluorescence intensity (a.u.)

Q: “GTTGCCAACCGCCACCGTCCTTGCCGCCGCCGTCGCCTCCCGGAGTCACCTAGTGCAG” was tested. Which binding signal did it give?
A: 11700 fluorescence intensity (a.u.)

Q: How did the binding signal turn out when “CTCGAACCACTGACCATCCCGTCCACACTGCACCGCGCTACGGAGTCACCTAGTGCAG” was run?
A: 8260 fluorescence intensity (a.u.)

Q: With “GATCATCTGGTGGTGTGTTCTACGGGTTGCAGCTTCTTTCCGGAGTCACCTAGTGCAG” as the sequence, how does the binding signal read?
A: 10600 fluorescence intensity (a.u.)

Q: How did the binding signal turn out when “CACGGGTACTTTTGCTAAACCAAACAACAATTTTGGTCAACGGAGTCACCTAGTGCAG” was run?
A: 8680 fluorescence intensity (a.u.)

Q: “GAGCACATGAACAGCTGATTATTTTTTTATCTGTGTGTTACGGAGTCACCTAGTGCAG” was tested. Which binding signal did it give?
A: 8330 fluorescence intensity (a.u.)

Q: Which binding signal does the source give for “ATTCCACCGCATCGCGCGCGGGGTTAGGGAGGGGCCTGGTCGGAGTCACCTAGTGCAG” here?
A: 9970 fluorescence intensity (a.u.)

Q: Which binding signal does the source give for “CTGCGCGCCGCCACCGCCATGCTCCCGCGCCGCCGACACCCGGAGTCACCTAGTGCAG” here?
A: 10100 fluorescence intensity (a.u.)

Q: For “TGTCCGCCATTGCTTTCGTTTCCTCTTCATGCGATGCGAGCGGAGTCACCTAGTGCAG”, which binding signal is on record?
A: 9520 fluorescence intensity (a.u.)

Q: With “TTGCCCTTAATGTTGATCTCTCACTCTCAGCTTTCCACGACGGAGTCACCTAGTGCAG” as the sequence, how does the binding signal read?
A: 8680 fluorescence intensity (a.u.)

Q: “CGTGCCCGTGCCCGTGCCCCGCCCGCCCGCCCGCGTGCCGCGGAGTCACCTAGTGCAG” was tested. Which binding signal did it give?
A: 8210 fluorescence intensity (a.u.)

Q: Which binding signal does the source give for “ACCAGTACTAGCGAGGTGTTTTGAAACATTTTCTTTTACGCGGAGTCACCTAGTGCAG” here?
A: 8460 fluorescence intensity (a.u.)

Q: How did the binding signal turn out when “GAAAAGACCTGCAAAGGGTGCTGTTGCACGTGCTTTGTTCCGGAGTCACCTAGTGCAG” was run?
A: 8710 fluorescence intensity (a.u.)

Q: Which binding signal does the source give for “GGGAGGAGACGAGGGGTAATATGTCTGGTTTGAATGCATTCGGAGTCACCTAGTGCAG” here?
A: 9410 fluorescence intensity (a.u.)

Q: “GAGCATCGCCGCGCCCCACATGCGGAGCTCCGCCCCAAACCGGAGTCACCTAGTGCAG” was tested. Which binding signal did it give?
A: 8310 fluorescence intensity (a.u.)

Q: “TGGCCTGTTACGTTGTATATTAAAATCTTGCTCTCTTCTACGGAGTCACCTAGTGCAG” was tested. Which binding signal did it give?
A: 8650 fluorescence intensity (a.u.)

Q: With “CGCGCCACCACTTTCACCCCTTGATCGATCACGCCAATTACGGAGTCACCTAGTGCAG” as the sequence, how does the binding signal read?
A: 9340 fluorescence intensity (a.u.)

Q: With “ACGTTGTTGTACACTTTATTATGTATGGCGTGATAAATTTCGGAGTCACCTAGTGCAG” as the sequence, how does the binding signal read?
A: 10100 fluorescence intensity (a.u.)

Q: “GCCCCACCTGTCACCCACACGTACCCTGAGGCTGTCAGATCGGAGTCACCTAGTGCAG” was tested. Which binding signal did it give?
A: 8790 fluorescence intensity (a.u.)

Q: With “CCGAGTCTACTCCCGTTCAACTTCGAGCACCTGACGCTACCGGAGTCACCTAGTGCAG” as the sequence, how does the binding signal read?
A: 8030 fluorescence intensity (a.u.)

Q: “GGGGCGATTTTTTTTTTTTTTTAGAATTGCGAGATAGGGGCGGAGTCACCTAGTGCAG” was tested. Which binding signal did it give?
A: 10700 fluorescence intensity (a.u.)

Q: How did the binding signal turn out when “GAATGTTTTTCTGCATACCTGTCGTTGTTTTTAACTGTTGCGGAGTCACCTAGTGCAG” was run?
A: 8110 fluorescence intensity (a.u.)

Q: For “AGGTGATCTCGGTGGTGGTTGTGGCGGTTAACTCCTTCTTCGGAGTCACCTAGTGCAG”, which binding signal is on record?
A: 10100 fluorescence intensity (a.u.)

Q: For “AAATATCTTCTCGATCGGTCTACAGTTCTGTGGGTGGGGACGGAGTCACCTAGTGCAG”, which binding signal is on record?
A: 12800 fluorescence intensity (a.u.)

Q: Which binding signal does the source give for “ATCACATGTAGGACTTCATTGTTTCGCTTATTGACGGAATCGGAGTCACCTAGTGCAG” here?
A: 8270 fluorescence intensity (a.u.)

Q: Which binding signal does the source give for “GCTTTGAGATGCCTTTGTCTTTTTGGATTGCTAGAGAACACGGAGTCACCTAGTGCAG” here?
A: 8780 fluorescence intensity (a.u.)

Q: How did the binding signal turn out when “ATATCTATAACTTTTATTTTAGTCATTTCTTCATCCGACACGGAGTCACCTAGTGCAG” was run?
A: 9000 fluorescence intensity (a.u.)

Q: With “GTCCTAAAGTACTTATTGTGTCCGGTTTTGGTTAGTTAAGCGGAGTCACCTAGTGCAG” as the sequence, how does the binding signal read?
A: 12500 fluorescence intensity (a.u.)

Q: Which binding signal does the source give for “ACCTTCTTTGTTGTTTGATTTCTGTTGGTCCCTAGCTGATCGGAGTCACCTAGTGCAG” here?
A: 13300 fluorescence intensity (a.u.)

Q: How did the binding signal turn out when “GCGAGTAGGTGGGGCGGGCGTTGCCGCCGGTGGCCGTCGACGGAGTCACCTAGTGCAG” was run?
A: 8490 fluorescence intensity (a.u.)

Q: For “ACGTGTCTATTACCATACTTTATGCTTAGAAATTTCTAGTCGGAGTCACCTAGTGCAG”, which binding signal is on record?
A: 11200 fluorescence intensity (a.u.)

Q: For “CCCAACCTCCCGCCGCCGCCGCCGCCGCCGCATCCGCATGCGGAGTCACCTAGTGCAG”, which binding signal is on record?
A: 10000 fluorescence intensity (a.u.)

Q: For “TTTTATACTATTCCCTCCGTTTCAGGTTAACATTTTGACTCGGAGTCACCTAGTGCAG”, which binding signal is on record?
A: 8190 fluorescence intensity (a.u.)

Source: article PMC7819943, “Rice protein-binding microarrays: a tool to detect cis-acting elements near promoter regions in rice”
